Literature values, collected in patent publication US20210046137A1, “ANTIMICROBIAL PHOTOSENSITIZER COMPOSITION AND METHOD” (ToeFX Inc., priority 2018, published 2021).
At least one compound was matched to its structure with a doubt left. Some of these results come from one statement about several compounds together.

What was measured:
Staphylococcus aureus = details: extremely low drug concentrations; Kashef et al. 2013; cited from earlier work
Enterococcus faecalis = details: extremely low drug concentrations; Kashef et al. 2013; cited from earlier work
Escherichia coli = details: extremely low drug concentrations; Kashef et al. 2013; cited from earlier work
onychomycosis = details: oral antifungal agent, standard of care; cited from earlier work

| Structure (SMILES) | phototoxicity (Staphylococcus aureus) | phototoxicity (Enterococcus faecalis) | phototoxicity (Escherichia coli) | cure rate (onychomycosis) |
| --- | --- | --- | --- | --- |
| Cc1cc(O)c2c(=O)c3c(O)cc(O)c4c5c(O)cc(O)c6c(=O)c7c(O)cc(C)c8c1c2c(c34)c(c78)c65 [hypericin] | high phototoxicity | high phototoxicity | high phototoxicity | – |
| CCC(C)n1ncn(-c2ccc(N3CCN(c4ccc(OCC5COC(Cn6cncn6)(c6ccc(Cl)cc6Cl)O5)cc4)CC3)cc2)c1=O (centres unmarked) [litraconazole] | – | – | – | less than 10% |
| CN(C/C=C/C#CC(C)(C)C)Cc1cccc2ccccc12 [terbinafine] | – | – | – | less than 10% |
